# Counter-ions that a name gives are not always drawn. ± gives the standard deviation of the averaged measurements. The list shows a part of the results. These are raw signals, not scaled to a control.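 Across three biological replicates, HeLa cells were imaged for ribosome assembly using ENP1 staining (export block present or absent) or inducible tagged ribosomal protein reporters. Machine learning classified each cell's signal localization relative to DMSO controls. Hits exceeded the DMSO false-positive mean by five standard deviations and were then visually confirmed.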
# What was measured:
# [1] = system: HeLa K (ENP1 immunofluorescence, +LMB); experiment: fraction of cells with nucleolar or nucleolar/nucleoplasmic ENP1 signal (MainHitrate); higher = more cells with nucleolar/nuclear readout signal (for ENP1 -LMB: less RNAPI inhibition; for +LMB ENP1 and RP reporters: stronger nuclear/nucleolar retention, i.e. ribosome biogenesis defect); details: concentration: 1 µM; treatment time: 6 h; ENP1 +LMB; leptomycin B: 20 nM, last 1.5 h
# [2] = system: HeLa K (ENP1 immunofluorescence, no LMB); experiment: as above; details: concentration: 1 µM; treatment time: 6 h; ENP1 -LMB; leptomycin B: none
# HeLa RPS2-YFP reporter = experiment: fraction of reporter-positive cells with nuclear (nucleolar or nucleolar/nucleoplasmic) RPS2-YFP (MainHitrate); higher = more cells with nucleolar/nuclear readout signal (for ENP1 -LMB: less RNAPI inhibition; for +LMB ENP1 and RP reporters: stronger nuclear/nucleolar retention, i.e. ribosome biogenesis defect); details: concentration: 1 µM; treatment time: 6 h
# HeLa RPL29-GFP reporter = experiment: fraction of reporter-positive cells with nuclear (nucleolar or nucleolar/nucleoplasmic) RPL29-GFP (MainHitrate); higher = more cells with nucleolar/nuclear readout signal (for ENP1 -LMB: less RNAPI inhibition; for +LMB ENP1 and RP reporters: stronger nuclear/nucleolar retention, i.e. ribosome biogenesis defect); details: concentration: 1 µM; treatment time: 6 h
SMILES,fraction [1],fraction [2],fraction of reporter-positive cells with nuclear (HeLa RPS2-YFP reporter),fraction of reporter-positive cells with nuclear (HeLa RPL29-GFP reporter)
COCCCOc1cc(C[C@@H](C[C@H](N)[C@@H](O)C[C@H](C(=O)NCC(C)(C)C(N)=O)C(C)C)C(C)C)ccc1OC [Aliskiren hemifumarate],0.139 ± 0.2,0.988 ± 0.02,0.0867 ± 0.067,0.25 ± 0.075
CS(=O)(=O)CCNCc1ccc(-c2ccc3ncnc(Nc4ccc(OCc5cccc(F)c5)c(Cl)c4)c3c2)o1 [Lapatinib],0.162 ± 0.24,0.9948 ± 0.0091,0.106 ± 0.1,0.269 ± 0.08
C[C@H]1C[C@H]2[C@@H]3CCC4=CC(=O)C=C[C@]4(C)[C@H]3C(=O)C[C@]2(C)[C@@]1(O)C(=O)CO [Betapar (Meprednisone)],0.1 ± 0.074,0.9983 ± 0.0029,0.107 ± 0.08,0.257 ± 0.1
COc1ccc2[nH]c([S@@+]([O-])Cc3ncc(C)c(OC)c3C)nc2c1 [Esomeprazole sodium (Nexium)],0.192 ± 0.29,0.99 ± 0.018,0.112 ± 0.094,0.244 ± 0.11
CN(C)[C@@H](CCOc1cccc2ccccc12)c1ccccc1 [Dapoxetine hydrochloride (Priligy)],0.113 ± 0.15,0.992 ± 0.013,0.157 ± 0.083,0.219 ± 0.083
CCCCCCCCCC(=O)N[C@H]1[C@H](Oc2c3cc4cc2Oc2ccc(cc2Cl)[C@@H](O[C@@H]2O[C@H](CO)[C@@H](O)[C@H](O)[C@H]2NC(C)=O)[C@@H]2NC(=O)[C@H](NC(=O)[C@@H]4NC(=O)[C@H]4NC(=O)[C@@H](Cc5ccc(c(Cl)c5)O3)NC(=O)[C@H](N)c3ccc(O)c(c3)Oc3cc(O)cc4c3)c3ccc(O)c(c3)-c3c(OC4O[C@H](CO)[C@@H](O)[C@H](O)[C@@H]4O)cc(O)cc3[C@@H](C(=O)O)NC2=O)O[C@H](CO)[C@@H](O)[C@@H]1O (stereo partly drawn) [Teicoplanin],0.0966 ± 0.12,0.9987 ± 0.0023,0.0942 ± 0.079,0.197 ± 0.081
CCCCC(=O)N(Cc1ccc(-c2ccccc2-c2nnn[nH]2)cc1)[C@H](C(=O)O)C(C)C [Valsartan (Diovan)],0.0818 ± 0.12,0.989 ± 0.019,0.177 ± 0.087,0.229 ± 0.098
CCCNC(C)C(=O)Nc1ccccc1C (stereo not drawn) [Prilocaine],0.098 ± 0.097,0.9988 ± 0.0021,0.0963 ± 0.07,0.207 ± 0.066
O=C(CCCN1CCN(c2ccccn2)CC1)c1ccc(F)cc1 [Azaperone],0.109 ± 0.15,0.983 ± 0.029,0.131 ± 0.09,0.21 ± 0.043
Cc1c(Nc2ncccc2C(=O)O)cccc1C(F)(F)F [Flunixin meglumin],0.077 ± 0.098,0.9944 ± 0.0097,0.0707 ± 0.027,0.231 ± 0.058
Nc1nc(N)c2nc(-c3ccccc3)c(N)nc2n1 [triamterene],0.101 ± 0.13,0.986 ± 0.025,0.111 ± 0.098,0.227 ± 0.075
OCCN(CCO)c1nc(N2CCCCC2)c2nc(N(CCO)CCO)nc(N3CCCCC3)c2n1 [Dipyridamole (Persantine)],0.116 ± 0.17,0.991 ± 0.016,0.143 ± 0.11,0.236 ± 0.074
CN(C)c1nc(N(C)C)nc(N(C)C)n1 [Altretamine (Hexalen)],0.13 ± 0.17,0.9984 ± 0.0027,0.123 ± 0.078,0.203 ± 0.09
CC(C)(O)c1ccccc1CC[C@@H](SCC1(CC(=O)O)CC1)c1cccc(/C=C/c2ccc3ccc(Cl)cc3n2)c1 [Montelukast Sodium],0.0577 ± 0.074,0.9943 ± 0.0099,0.113 ± 0.1,0.219 ± 0.058
O=C1NCC2(CCN(CCc3ccccc3)CC2)O1 [Fenspiride HCl],0.0943 ± 0.14,0.988 ± 0.021,0.13 ± 0.12,0.242 ± 0.054
COc1c(N2C[C@@H]3CCCN[C@@H]3C2)c(F)cc2c(=O)c(C(=O)O)cn(C3CC3)c12 [Moxifloxacin hydrochloride],0.0633 ± 0.02,0.9969 ± 0.0053,0.0909 ± 0.073,0.201 ± 0.028
CCOc1nc2cccc(C(=O)OC(C)OC(=O)OC3CCCCC3)c2n1Cc1ccc(-c2ccccc2-c2nn[nH]n2)cc1 (stereo not drawn) [Candesartan cilexetil (Atacand)],0.202 ± 0.31,0.993 ± 0.012,0.11 ± 0.054,0.235 ± 0.081
CCOC(=O)[C@H](CCc1ccccc1)N[C@H]1CCCN2CCC[C@@H](C(=O)O)N2C1=O [Cilazapril monohydrate (Inhibace)],0.0835 ± 0.12,0.9957 ± 0.0074,0.0882 ± 0.077,0.209 ± 0.056
CN1C[C@@H]2C[C@H]1CN2c1cc2c(cc1F)c(=O)c(C(=O)O)cn2C1CC1 [Danofloxacin Mesylate],0.0927 ± 0.12,0.984 ± 0.028,0.158 ± 0.094,0.218 ± 0.072
CC(=O)O[C@]1(C(C)=O)CC[C@H]2[C@@H]3C=C(C)C4=CC(=O)CC[C@]4(C)[C@H]3CC[C@@]21C [Megestrol Acetate],0.108 ± 0.076,0.9975 ± 0.0043,0.132 ± 0.11,0.206 ± 0.073
Nc1cc(C(Cl)=C(Cl)Cl)c(S(N)(=O)=O)cc1S(N)(=O)=O [Clorsulon],0.151 ± 0.2,0.984 ± 0.028,0.12 ± 0.1,0.218 ± 0.053
CN1CCC(=C2c3ccccc3CC(=O)c3sccc32)CC1 [Ketotifen fumarate (Zaditor)],0.114 ± 0.17,0.987 ± 0.022,0.118 ± 0.081,0.22 ± 0.074
CN(C)CCc1c[nH]c2ccc(CS(=O)(=O)N3CCCC3)cc12 [Almotriptan malate (Axert)],0.0885 ± 0.13,0.9975 ± 0.0044,0.117 ± 0.08,0.234 ± 0.057
"CCCCCCCCCCC[C@@H](C[C@@H]1OC(=O)[C@H]1CCCCCC)OC(=O)[C@H](CC(C)C)NC=O [Orlistat (Alli, Xenical)]",0.0952 ± 0.12,0.9981 ± 0.0033,0.109 ± 0.067,0.211 ± 0.074
CC(=O)/N=c1/sc(S(N)(=O)=O)nn1C [Methazolamide],0.0436 ± 0.036,0.987 ± 0.023,0.0983 ± 0.098,0.191 ± 0.03
C#C[C@]1(O)CC[C@H]2[C@@H]3CCc4cc(O)ccc4[C@H]3CC[C@@]21C [Ethinyl Estradiol],0.154 ± 0.2,0.9983 ± 0.003,0.151 ± 0.11,0.209 ± 0.061

SMILES,fraction [1],fraction [2],fraction of reporter-positive cells with nuclear (HeLa RPS2-YFP reporter),fraction of reporter-positive cells with nuclear (HeLa RPL29-GFP reporter)
O=C(CCNNC(=O)c1ccncc1)NCc1ccccc1 [Nialamide],0.165 ± 0.24,0.9958 ± 0.0073,0.193 ± 0.17,0.274 ± 0.23
O=c1[nH]c(=O)n([C@H]2C[C@H](O)[C@@H](CO)O2)cc1I [Idoxuridine],0.116 ± 0.17,0.99 ± 0.018,0.124 ± 0.06,0.216 ± 0.05
CC[C@H]1OC(=O)[C@H](C)[C@@H](O[C@H]2C[C@@](C)(OC)[C@@H](O)[C@H](C)O2)[C@H](C)[C@@H](O[C@@H]2O[C@H](C)C[C@H](N(C)C)[C@H]2O)[C@](C)(O)C[C@@H](C)C(=O)[C@H](C)[C@@H](O)[C@]1(C)O [Erythromycin (E-Mycin)],0.124 ± 0.12,0.998 ± 0.0034,0.104 ± 0.057,0.202 ± 0.083
Cc1ccnc(NS(=O)(=O)c2ccc(N)cc2)n1 [Sulfamerazine],0.068 ± 0.07,0.985 ± 0.026,0.101 ± 0.079,0.215 ± 0.067
Cc1c(O)c(=O)ccn1C [Deferiprone],0.0382 ± 0.047,0.974 ± 0.045,0.13 ± 0.077,0.205 ± 0.045
O=c1[nH]c(=O)n([C@H]2C[C@H](O)[C@@H](CO)O2)cc1C(F)(F)F [Trifluridine (Viroptic)],0.0899 ± 0.11,0.9992 ± 0.0014,0.104 ± 0.083,0.181 ± 0.068
CN1CCC(OC(c2ccccc2)c2ccccc2)CC1 [Diphenylpyraline HCl],0.0862 ± 0.09,0.9991 ± 0.0016,0.155 ± 0.15,0.275 ± 0.25
CN(C)c1ccc(C(=C2C=CC(=[N+](C)C)C=C2)c2ccc(N(C)C)cc2)cc1 [Crystal violet],0.206 ± 0.32,0.975 ± 0.043,0.32 ± 0.3,0.327 ± 0.13
CN(C)c1cc(NC(=O)CNC(C)(C)C)c(O)c2c1C[C@H]1C[C@H]3[C@H](N(C)C)C(O)=C(C(N)=O)C(=O)[C@@]3(O)C(O)=C1C2=O [Tigecycline],0.104 ± 0.088,0.9985 ± 0.0026,0.118 ± 0.071,0.198 ± 0.071
CCC(=O)NCC[C@@H]1CCc2ccc3c(c21)CCO3 [Ramelteon (TAK-375)],0.104 ± 0.11,0.9982 ± 0.003,0.109 ± 0.072,0.201 ± 0.062
"O=S(=O)(O)CCS [Mesna (Uromitexan, Mesnex)]",0.125 ± 0.15,0.9988 ± 0.002,0.102 ± 0.056,0.227 ± 0.07
CC1CC(OC(=O)C(O)c2ccccc2)CC(C)(C)C1 (stereo not drawn) [Cyclandelate],0.112 ± 0.14,0.984 ± 0.028,0.15 ± 0.084,0.212 ± 0.073
Clc1ccc(CSC(Cn2ccnc2)c2ccc(Cl)cc2Cl)cc1 (stereo not drawn) [Sulconazole Nitrate],0.0677 ± 0.085,0.992 ± 0.015,0.125 ± 0.097,0.226 ± 0.086
O=C(CCCCCCC(=O)Nc1ccccc1)NO [Vorinostat (SAHA)],0.103 ± 0.015,0.9984 ± 0.0028,0.0856 ± 0.044,0.261 ± 0.097
CC(C)(Oc1ccc(CCNC(=O)c2ccc(Cl)cc2)cc1)C(=O)O [Bezafibrate],0.0396 ± 0.043,0.992 ± 0.013,0.0764 ± 0.045,0.195 ± 0.034
CS(=O)(=O)CCNCc1ccc(-c2ccc3ncnc(Nc4ccc(OCc5cccc(F)c5)c(Cl)c4)c3c2)o1 [Lapatinib Ditosylate (Tykerb)],0.0744 ± 0.055,0.998 ± 0.0034,0.126 ± 0.1,0.187 ± 0.058
CN(C)CCN(Cc1cccs1)c1ccccn1 [Methapyrilene HCl],0.106 ± 0.14,0.991 ± 0.015,0.166 ± 0.17,0.278 ± 0.21
NC(=O)c1ncn([C@@H]2O[C@H](CO)[C@@H](O)[C@H]2O)c1N [Acadesine],0.0418 ± 0.041,0.9974 ± 0.0045,0.094 ± 0.08,0.258 ± 0.079
CCCCc1oc2ccccc2c1C(=O)c1cc(I)c(OCCN(CC)CC)c(I)c1 [Amiodarone HCl],0.112 ± 0.16,0.991 ± 0.015,0.104 ± 0.067,0.235 ± 0.076
Nc1nc2c(ncn2COCCO)c(=O)[nH]1 [Acyclovir (Aciclovir)],0.0817 ± 0.1,0.9965 ± 0.006,0.102 ± 0.075,0.266 ± 0.081
Nc1nc(CC(=O)Nc2ccc(CCNC[C@H](O)c3ccccc3)cc2)cs1 [Mirabegron (YM178)],0.0917 ± 0.13,0.991 ± 0.015,0.115 ± 0.11,0.211 ± 0.07
CCc1nc(N)nc(N)c1-c1ccc(Cl)cc1 [Pyrimethamine],0.105 ± 0.14,0.991 ± 0.015,0.114 ± 0.056,0.211 ± 0.063
CNC[C@H](O)c1ccc(O)c(O)c1 [Epinephrine bitartrate (Adrenalinium)],0.147 ± 0.21,0.991 ± 0.015,0.117 ± 0.09,0.214 ± 0.069
CC1Cc2ccccc2N1NC(=O)c1ccc(Cl)c(S(N)(=O)=O)c1 (stereo not drawn) [Indapamide (Lozol)],0.0863 ± 0.09,0.9989 ± 0.002,0.136 ± 0.11,0.209 ± 0.048
COC(=O)[C@H](c1ccccc1Cl)N1CCc2sccc2C1 [Clopidogrel (Plavix)],0.0977 ± 0.12,0.9984 ± 0.0027,0.112 ± 0.062,0.209 ± 0.074
Cc1ccc(Nc2nccc(N(C)c3ccc4c(C)n(C)nc4c3)n2)cc1S(N)(=O)=O [Pazopanib],0.168 ± 0.26,0.978 ± 0.038,0.154 ± 0.12,0.227 ± 0.053

# Source: the supplement of paper PMC12542422
